# In all, about 6,900 compounds went through this assay and fewer than 10 were called active. Calls follow the shape of the dose curve; as a rule, active = well fitted curve in the direction sought with a large enough effect; inconclusive = small, poorly fitted or top-dose-only effect, or another doubt; inactive = no such curve, though single readings can be large or run the other way. The list shows a part of the results.
# Sequences of proteins named here, by UniProt entry; tags and fusion partners are left off. A change or cut given only in a name is not applied to a line headed by its entry.
# UniProt C7C422: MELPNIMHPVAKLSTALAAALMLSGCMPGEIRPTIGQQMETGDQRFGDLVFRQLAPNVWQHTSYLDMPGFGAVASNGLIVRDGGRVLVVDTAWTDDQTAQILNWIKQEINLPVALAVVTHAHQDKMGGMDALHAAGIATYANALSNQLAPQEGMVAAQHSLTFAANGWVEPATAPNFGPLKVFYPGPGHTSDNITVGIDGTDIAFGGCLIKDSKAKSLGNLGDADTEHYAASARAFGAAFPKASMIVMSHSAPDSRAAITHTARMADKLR
# Target: Metallo-beta-lactamase type 2 (Klebsiella pneumoniae) (UniProt C7C422)
# Test: qHTS to identify inhibitors of the New Delhi Metallo-beta-lactamase (NDM): primary screen against the NCATS Gemini Collection; also: % of control where 0% means no effect
# Settings: NDM-1 enzyme, meropenem hydrolysis, absorbance 300 nm; at 38.4 µM (top of the series) unless noted
# Procedure, shortened: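 NDM-1 at 2 nM final in 50 mM HEPES pH 7.0, 1 uM ZnSO4, 0.01% Tween20, preincubated >30 min with compound. Meropenem 50 uM final added; absorbance at 300 nm after 30 min.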
row,Compound,activity % (negative = inhibition)
1,O=C1NC2(CCN(Cc3ccccc3C(F)(F)F)C2)COc2ccccc21 (stereo not given),inactive: 13.6%
2,O=C(C1CC1)N1C[C@@H]2OCC(=O)N(CC3CC3)[C@@H]2C1,inactive: -1.16% [at 77.1 µM]
3,O=C(CC[C@@H]1CNC(=O)[C@@H]2C[C@H](NC(=O)C3CC3)CN12)NCc1cccs1,inactive: -0.226% [at 57.5 µM]
4,O=C(CC1CCOCC1)N1CCN(c2ncccn2)CC1,inactive: 12.5%
5,O=C(Nc1ccc2c(N3CCCCC3)ncnc2c1)c1ccccc1C(F)(F)F,inactive: 2.19%
6,CCS(=O)(=O)N1CCC2(CC1)CC(N1CCN(C(C)C)CC1)CCO2 (stereo not given),inactive: 0.626%
7,CC(=O)NC1CCN(Cc2cn(-c3ccccc3F)nc2-c2cc(C)sc2C)C1 (stereo not given),inactive: -0.368%
8,O=C1CCCCC(C(=O)NCCc2ccncc2)N1 (stereo not given),inactive: -9.07%
9,COC(=O)N1CCCN(c2nccc(Nc3ccc(C)cc3)n2)C1,inactive: -3.31% [at 57.5 µM]
10,COc1ccc(N2CC3CCC(C2)N3Cc2cccc(Cl)c2)cc1,inactive: -0.387%
11,FC(F)(F)c1cccc(C2=NOC3(CCCN(CC4CCCCC4)C3)C2)c1 (stereo not given),inactive: 7.3%
12,O=C(c1ccc(F)cc1)N1CCC(N2CCCCCC2=O)CC1,inactive: 6.1% [at 57.5 µM]
13,CN(C(=O)C1(N)CC1)C1CCCN(CCCc2ccccc2)C1 (stereo not given),inactive: 29.4%
14,O=S(=O)(N[C@H]1[C@H](O)[C@H](O)C[C@@H]1c1cncnc1)c1ccc(Cl)cc1,inactive: 4.46% [at 57.5 µM]
15,O[C@@H]1CC(CNCc2ccc(F)cc2)(COc2cccnc2)C[C@@H]1O (stereo not given in full),inactive: 36.3% [at 57.5 µM]
16,O=C(CN1CCOCC1)N1CCC(c2cc(N3CCCC3)ncn2)CC1,inactive: -2%
17,Cc1ncccc1C(=O)N1CCCN(C(=O)C2CC2)C(c2ccccc2)CC(=O)NCC1 (stereo not given),inactive: 1.83%
18,Cc1nn(-c2ccccc2)c2c1C(C1CC1)N(C1CN(C(=O)Nc3ccccc3)C1)C2=O (stereo not given),inactive: -3.25%
19,Cc1ccc(C(C(=O)NCc2c(C)n[nH]c2C)N(C)C)cc1 (stereo not given),inactive: 2.18%
20,CC[C@H]1CN(S(=O)(=O)c2ccc(OC)cc2)CC[C@H]1CC(=O)NCc1cccnc1,inactive: -5.12% [at 57.5 µM]
21,CCOC(=O)C1CCCN(C(=O)C2CC(c3ccc(CC)cc3)CN(C(C)=O)C2)C1 (stereo not given),inactive: -0.291%
22,O=C(Nc1cccc(Cl)c1)[C@@H]1C[C@H](c2ccc(F)cc2)N([S+](=O)([O-])C2CC2)C1,inactive: -4.3% [at 57.5 µM]
23,Cc1ccc(N2CCN(C(=O)c3noc(-c4ccc[nH]c4=O)n3)CC2)cc1,inactive: 40.4%
24,COc1ccc(F)cc1S(=O)(=O)N1C[C@@H](C(N)=O)[C@H](C2CCN(C)CC2)C1,inactive: 5.81%
25,CC1(CCC(=O)N2CCCC2C(=O)Nc2ccccc2Oc2cccnc2)CC1 (stereo not given),inactive: 1.27%
26,CSCCC(=O)N1CCC(C2CCN(c3ncccn3)CC2)C1 (stereo not given),inactive: 17.7%
27,Cc1ccc(C(=O)N2CCC3(CC2)N=C(c2cccc(Br)c2)NO3)s1,inactive: -0.31%
28,N#Cc1cnc(N2CC3CCC(C2)N3CC(F)(F)F)s1,inactive: 10.6% [at 57.5 µM]

# Among those listed so far, these have a Cl atom.
row,Compound,activity % (negative = inhibition)
10,COc1ccc(N2CC3CCC(C2)N3Cc2cccc(Cl)c2)cc1,inactive: -0.387%
14,O=S(=O)(N[C@H]1[C@H](O)[C@H](O)C[C@@H]1c1cncnc1)c1ccc(Cl)cc1,inactive: 4.46% [at 57.5 µM]
22,O=C(Nc1cccc(Cl)c1)[C@@H]1C[C@H](c2ccc(F)cc2)N([S+](=O)([O-])C2CC2)C1,inactive: -4.3% [at 57.5 µM]

# Next entries:

row,Compound,activity % (negative = inhibition)
1,COc1ccccc1CN(C)C1CCc2ccccc21 (stereo not given),inactive: 8.3% [at 57.5 µM]
2,O=C(N[C@H]1CCOC[C@H]1C1CCOCC1)c1cc2ncccn2n1,inactive: 61.1%
3,O=C(NC1CCCCC1)c1nn(CCOc2ccccc2)c2c1CNCC2,inactive: -2.67%
4,CN1CCCC2(CC1)CCN(C(=O)c1ccc(C#CC(C)(C)O)cc1)CC2,inactive: 9.2%
5,CN(CCc1ccccc1)C(=O)c1cc(-c2ccc[nH]2)n[nH]1,inactive: -4.72%
6,Cc1ccc(F)c(C(=O)N[C@H]2CCOC[C@H]2C2CCOCC2)c1Cl,inactive: 0.677%
7,N#CC1CCN(C(=O)c2nc(-c3ccc(Cl)cc3Cl)c3ccccn23)CC1,inactive: -1.02%
8,CC(C)[C@@H]1C[C@@H]2C[C@@H](Nc3ccccn3)C[C@]2(c2ccccc2)CO1,inactive: -0.569%
9,CC1CCCC(C)N1C(=O)c1ccc2nc(-c3cccnc3)oc2c1 (stereo not given),inactive: 9.96% [at 57.5 µM]
10,O=C(CC1CCCC1)N1CC[C@@H]2COCCN(Cc3ccccc3)[C@@H]2C1,inactive: 0.752%
11,CNc1cc(C2CC(NC(=O)COc3ccc(Cl)cc3C)C2)nc(N)n1 (stereo not given),inactive: -5.16%
12,COCCn1cnnc1C(C)NC(=O)c1cn(C2CCC(N)CC2)nn1 (stereo not given),inactive: 5.59%
13,COc1ccccc1-c1nocc1CCC(=O)O,inactive: 5.56%
14,CCCNC(=O)NCCc1ncc(C)n1CC1CC1,inactive: 2.69%
15,Cc1cc(C)c(CNC(=O)c2cccc(CCC(C)(C)O)c2)cn1,inactive: 2.12%
16,COCCn1c(C)cc(C(=O)N2CCCCCCNC(=O)CC2)c1C,inactive: -0.0422%
17,O=C(CCc1c[nH]c2ccccc12)N1CC(N(Cc2ccccc2)C2CCOCC2)C1,inactive: 10.9%
18,CS(=O)(=O)N1C[C@@H](Oc2ccccc2)C[C@H]1C(=O)N1CCCC1,inactive: -0.651%
19,O=C1CCN(C(=O)[C@H](Cc2ccccc2)NC(=O)c2ccoc2)CCCOCCN1,inactive: 22.6%
20,COc1ccccc1NC(=O)N1CCN2C(=O)NC[C@H]2C1,inactive: -0.569% [at 77.1 µM]
21,Cc1ccc(OCC(=O)N2CCC3(CC2)N=C(c2ccc(C)cc2)NO3)cc1,inactive: -0.0167%
22,CC(=O)N1CCC(N[C@@H]2CO[C@H](CNS(=O)(=O)c3ccccc3)[C@H]2O)CC1,inactive: -7.27% [at 57.5 µM]
23,Cc1nnc2n1CCC(N(C)C(=O)NC1CCCC1)CC2 (stereo not given),inactive: 0.266%
24,COc1ccccc1CN1CC(c2noc(CCC(=O)c3ccc(C)cc3)n2)CC1=O (stereo not given),inactive: -0.958%
25,O=C(NCCCn1cccn1)c1ccccc1OC1CCN(Cc2ccccn2)CC1,inactive: 12.9%
26,NC(=O)Cn1ccn2nc3c(c2c1=O)CCCC3,inactive: 2.4%
27,CN(Cc1ccccc1)Cc1cc(C[C@@H]2C[C@H](NC(=O)C3CCC3)C2(C)C)no1,inactive: 20.3% [at 57.5 µM]

# Reference: PubChem BioAssay AID1794845 (National Center for Advancing Translational Sciences (NCATS), 2023)
